Measured values as given in PubChem BioAssay AID1487 (National Center for Advancing Translational Sciences (NCATS), 2009).
This is one part of the list. The main result of the screen is listed elsewhere. These columns were measured beside it and carry no call. Most of these compounds were active or inconclusive in the main read-out, so they are no random draw. Potencies come from curve fits of mixed quality, noted in brackets.

Assay: qHTS Assay for Modulators of Lamin A Splicing
Conditions: HeLa LMNA splicing GFP/RFP minigene ratio, 48 h
Method in brief: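 S3 HeLa stable clones carrying a lamin A-EGFP splicing minigene plus DsRed2 were seeded at 600 cells/well in Opti-MEM with 2% FBS, pin-dosed and incubated 48 h at 37°C. Acumen cytometry (488 nm) gave the GFP/RFP total-intensity ratio.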

[1] = measured here: GFP splicing reporter channel
[2] = measured here: RFP viability control channel

SMILES | AC50 [1] | AC50 [2]
Cc1cccc(-n2ncc3c(Nc4c(C)cc(C)cc4C)ncnc32)c1 | 8.91 µM [falling, partial curve, poor fit] | 10 µM [falling, partial curve, poor fit]
COc1ccc(NC(=O)c2cc(-c3cc(C)cc(C)c3O)n[nH]2)cc1Cl |  | 12.6 µM [rising, partial curve]
Cc1ccc(N=Nc2c(O)n(CN3CCOCC3)c3ccccc23)cc1 | 25.1 µM [falling, single point] | 35.5 µM [falling, single point]
COc1ccc(/C=C2/SC(=O)N(CCNC(=O)C3CCCN3C(=O)c3cccs3)C2=O)cc1 (centres undefined) | 7.94 µM [rising, partial curve, poor fit] | 14.1 µM [rising, partial curve]
CCCn1c(N)c(C(=O)CSc2ncc(C(F)(F)F)cc2Cl)c(=O)[nH]c1=O | 12.6 µM [falling, partial curve, poor fit] | 1.78 µM [falling, full curve, poor fit]
CC(Cc1cccs1)NC(=O)Nc1ccc(Cl)cc1 (centres undefined) |  | 35.5 µM [rising, single point]
O=C(c1csc2c1CCCC2)N1CCN(c2cccc(C(F)(F)F)c2)CC1 | 31.6 µM [rising, single point] | 25.1 µM [rising, single point]
CC(C)NC(=O)c1ccccc1S(=O)(=O)c1ccccc1C#N | 3.98 µM [falling, partial curve] | 5.01 µM [falling, partial curve, poor fit]
COc1ccc(C(=S)NC2CCCCC2)cc1 |  | 31.6 µM [rising, single point]
O=C(CCc1ccc(Oc2cc([N+](=O)[O-])cc([N+](=O)[O-])c2)cc1)N1CCCCCC1 |  | 15.8 µM [rising, single point]
CCNc1ncc2ncc(=O)n(Cc3cccs3)c2n1 | 17.8 µM [falling, single point] | 22.4 µM [falling, single point]
Cc1ccc2c(c1)c(C)cc[n+]2Cc1ccccc1 |  | 10 µM [rising, partial curve]
COc1ccc(NC(=O)/C(Cl)=C(/Cl)S(=O)Cc2ccc(Cl)cc2)cn1 (centres undefined) | 3.98 µM [falling, full curve] | 
COc1ccc(Cn2ccc3nc(C)c(C(=O)Nc4ccc(OC)cc4OC)cc3c2=O)cc1 | 15.8 µM [rising, partial curve, poor fit] | 
Cc1ccc(NC(=O)Cn2cc(S(=O)(=O)NC(C)C)c(S(=O)(=O)NC(C)C)c2)cc1Cl |  | 35.5 µM [rising, single point]
Cc1c(CN2CCC(CO)(CCOc3ccccc3)CC2)[nH]c2c(Cl)cccc12 | 12.6 µM [falling, partial curve] | 11.2 µM [falling, partial curve]

SMILES | AC50 [1] | AC50 [2]
COCCn1c(-c2ccc(Cl)cc2)cnc1SCC(=O)NCc1cccs1 |  | 17.8 µM [rising, single point]
COc1ccccc1CNc1nc(-c2ccc3c(c2)OCO3)nc2ccccc12 | 15.8 µM [falling, partial curve] | 15.8 µM [falling, partial curve]
Cc1ccc(NC(=O)c2cc(-c3ccccc3)nn2-c2ccccc2)cc1 | 14.1 µM [rising, single point] | 25.1 µM [rising, partial curve]
O=C1CN(C(=O)c2ccc(F)c(S(=O)(=O)N3CCOCC3)c2)c2ccccc2N1 | 0.00891 µM [falling, full curve, poor fit] | 
Cc1ccc(C)c(N2CCN(C(=O)COc3cc(=O)n(C)c4ccccc34)CC2)c1 | 12.6 µM [rising, single point] | 20 µM [rising, single point]
Cc1ccc(C)c(N(C(=O)c2nsc(Cl)c2Cl)C(C(=O)NC2CCCC2)c2ccc(O)cc2)c1 (centres undefined) |  | 15.8 µM [rising, single point]
COc1ccccc1-c1nnc(SCc2nc3ccccc3s2)n1C | 1.26 µM [falling, single point] | 
O=C(CSc1nc(C2CC2)nc2ccccc12)Nc1ccc2c(c1)OCCO2 | 22.4 µM [falling, single point] | 35.5 µM [falling, single point]
CCC(=O)NC(c1cccc([N+](=O)[O-])c1)c1c(OC(C)=O)ccc2ccccc12 (centres undefined) |  | 14.1 µM [rising, single point]
CN1C(=O)/C(=C\c2ccncc2)SC1=Nc1ccccc1 | 8.91 µM [rising, partial curve, poor fit] | 8.91 µM [rising, partial curve]
CCCCOC(=O)Nc1ccc(S(=O)(=O)Nc2ccc([N+](=O)[O-])cc2)cc1 |  | 35.5 µM [rising, single point]
Cc1cc(C(=O)CN2C(=O)C(=O)N(Cc3ccccc3)C2=O)c(C)n1-c1ccc2c(c1)OCCO2 | 2 µM [rising, full curve, poor fit] | 5.01 µM [rising, partial curve]
Cc1cccc(N=C2NN=C(c3c[nH]c4ccccc34)CS2)c1 | 22.4 µM [falling, single point] | 31.6 µM [falling, single point]
COc1cc(C(=O)NNC(=O)c2ccc(NC(=O)C(C)(C)C)cc2)cc(OC)c1OC |  | 2.82 µM [falling, full curve]
O=C1CCc2cc(S(=O)(=O)N3CCN(Cc4ccc5c(c4)OCO5)CC3)ccc2N1 | 12.6 µM [rising, partial curve, poor fit] | 12.6 µM [rising, partial curve]
CC(=O)Nc1c(C)nn(-c2ccccc2)c1N1CCC(C(=O)Nc2ccc(C)cc2Cl)CC1 | 0.158 µM [rising, full curve, poor fit] | 2.82 µM [rising, partial curve, poor fit]
